This is one part of the list. These are further read-outs of the screen, such as a control signal, another cell line or another target. No call is given for them. The list favours compounds with an active or inconclusive main result. Potencies come from curve fits of mixed quality, noted in brackets.
Assay: IkB Signaling
Settings: ABC-DLBCL IkBa-CBG/CBR dual luciferase ratio (green luciferase fused to IkBa over red control in OCI-Ly3 lymphoma cells), 4 h
Procedure, shortened: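 Curves were fitted separately to fusion (green), unfused (red) and ratio luminescence, then classed by r2, magnitude and activity. Cells: OCI-Ly3, 4 h compound plus doxycycline at 37C; 10 uM MG-132 defined full response.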

[1] = measured here: control luc red channel unless noted
[2] = measured here: IkB-luc green channel
[3] = measured here: control luc red channel

In the case of `CC1CN(S(=O)(=O)c2cn(C)c(=O)n(C)c2=O)CC(C)O1` (configuration not stated), the AC50 [1] was 20 µM [falling, partial curve].
For `CCOc1ccc(OCc2ccc(C(=O)Nc3ccc(Cl)cn3)o2)cc1`, the AC50 [1] was 15.8 µM [falling, partial curve].
For `Cc1ccccc1-c1nnc(SCC(=O)N2CCCc3ccccc32)o1`, the AC50 [1] was 12.6 µM [falling, partial curve].
In the case of `O=C(NCc1cccs1)c1cc2c(s1)CCCC2`, the AC50 [1] was 12.6 µM [falling, partial curve].
In the case of `COc1cc(Cl)c(C)cc1NC(=O)c1nn(-c2ccc(C)cc2)c(=O)n(C)c1=O`, the AC50 [1] was 10 µM [falling, partial curve].
With `COc1cccc(NC(=O)CSc2c(C)cnc3c2c(=O)n(C)c(=O)n3C)c1` the AC50 [1] was 3.16 µM [rising, full curve, poor fit] [measured here: IkB-luc green channel].
For `COc1ccc2oc(=O)c(C(=O)N3CCN(c4cc(Cl)ccc4Cl)CC3)cc2c1`, the AC50 [1] was 39.8 µM [falling, single point].
For `CC(C)(C)c1ccc(S(=O)(=O)/C=C\C#N)cc1`, the AC50 [2] was 6.31 µM [falling, full curve] and the AC50 [3] was 6.31 µM [falling, full curve].
In the case of `CCCC(=O)Nc1cccc(-c2nc3ncccc3o2)c1`, the AC50 [1] was 39.8 µM [falling, single point].
For `COc1cccc(-c2nc(Nc3ccncc3)c3ccccc3n2)c1`, the AC50 [1] was 3.16 µM [falling, single point] [measured here: IkB-luc green channel].
With `Cc1ccc(-c2nc(CCNC(=O)C(=O)Nc3ccc(F)cc3F)cs2)cc1` the AC50 [1] was 2.51 µM [falling, partial curve].
For `COc1ccccc1CNC(=O)CCCN1C(=O)CCn2nc(-c3cn(C)c4ccccc34)cc21`, the AC50 [1] was 15.8 µM [falling, single point].
In the case of `CCc1ccc(-c2ccc(C(=O)O)cc2)nc1`, the AC50 [1] was 15.8 µM [falling, partial curve].
With `C=CCOc1ccccc1/C=c1\sc2nc(=O)c(C)nn2c1=O` the AC50 [1] was 6.31 µM [falling, partial curve].
In the case of `Fc1ccc(C(c2nnc(-c3ccccc3)o2)N2CCN(c3ccccc3)CC2)c(Cl)c1` (configuration not stated), the AC50 [1] was 20 µM [falling, partial curve].
With `CCOc1ccc(-n2c(SCC(=O)Nc3ccc4c(c3)OCO4)nc3c(c2=O)SCC3)cc1` the AC50 [2] was 3.16 µM [rising, full curve] and the AC50 [3] was 0.794 µM [falling, full curve].
In the case of `CC(C)C(=O)Nc1c(C(=O)N2CCN(c3ccccc3F)CC2)oc2ccccc12`, the AC50 [1] was 12.6 µM [falling, partial curve].
For `Cc1ccc(-c2nc3sc(CCNC(=O)c4ccco4)c(C)n3n2)cc1`, the AC50 [1] was 15.8 µM [falling, single point].
In the case of `Cc1ccccc1NC(=O)CCc1c(C)nc2c(c1C)c(=O)n(C)c(=O)n2C`, the AC50 [1] was 39.8 µM [falling, single point].
With `CS(=O)(=O)N1CCCC(c2nc(-c3ccc(S(=O)(=O)NCc4ccccc4)cc3)no2)C1` (configuration not stated) the AC50 [1] was 15.8 µM [falling, partial curve].
In the case of `COc1cccc(NC(=O)c2nnn(Cc3cccc(C(F)(F)F)c3)c2N)c1`, the AC50 [1] was 7.94 µM [rising, partial curve].
In the case of `Cc1csc(NC(=O)CSc2nnc(-c3ccoc3C)n2CCc2ccccc2)n1`, the AC50 [1] was 31.6 µM [falling, single point].
In the case of `Cc1cccc(CN2C(=O)c3ccccc3S(=O)(=O)c3ccc(C(=O)N4CCCC4)cc32)c1`, the AC50 [1] was 31.6 µM [falling, single point].
For `CNc1nnc(-c2cc3ccccc3oc2=O)s1`, the AC50 [1] was 2.51 µM [falling, full curve, poor fit].
In the case of `Cc1oc(-c2ccccc2Cl)nc1CS(=O)(=O)CC(=O)NC(C)CCc1ccccc1` (configuration not stated), the AC50 [1] was 15.8 µM [falling, partial curve].
With `COc1ccc(C(=O)Nc2nc3nc(C)c(Cl)c(=O)n3[nH]2)cc1` the AC50 [1] was 39.8 µM [falling, partial curve, poor fit].
With `Cc1ccc2nc(Cl)c3cc(C(=O)NC4CCCCC4)sc3c2c1` the AC50 [1] was 3.98 µM [rising, single point].
For `CCOC(=O)c1ccc(NC(=O)c2nsc3ccccc23)cc1`, the AC50 [1] was 0.0631 µM [falling, full curve].
For `COc1ccccc1NC(=O)c1ccccc1-c1nc(-c2ccccc2OC)no1`, the AC50 [1] was 3.98 µM [falling, full curve].
For `CN1CCc2nc3sc(C(=O)Nc4c(F)cccc4F)c(N)c3cc2C1`, the AC50 [1] was 3.16 µM [falling, partial curve].
With `Cc1ccc(-c2cnc(NCc3c(F)cccc3Cl)n2C)cc1` the AC50 [1] was 25.1 µM [falling, single point].
In the case of `O=C(NCc1cccs1)c1cc2c(s1)-c1ccccc1OC2`, the AC50 [1] was 6.31 µM [falling, partial curve].
In the case of `CCOC(=O)c1cc(S(=O)(=O)N2CCN(c3cc(Cl)ccc3C)CC2)[nH]n1`, the AC50 [1] was 20 µM [falling, partial curve, poor fit].
With `Cc1ccc(C)c2sc(N3CCN(C(=O)c4ccco4)CC3)nc12` the AC50 [1] was 1.58 µM [rising, full curve].
For `Cc1ccc(NC(=O)Cn2ncc3c4ccccc4n(Cc4ccccc4)c3c2=O)cc1Cl`, the AC50 [1] was 31.6 µM [falling, single point].
With `Cc1cn2c(=O)c(S(=O)(=O)NC(C)c3ccccc3)c(C)nc2s1` (configuration not stated) the AC50 [1] was 0.251 µM [rising, partial curve].
With `Cc1cccc(Cn2c(-c3cccs3)nc3ccccc32)c1` the AC50 [1] was 25.1 µM [falling, single point].
For `NC(=O)Cn1c(=O)n(-c2ccc(F)c(Cl)c2)c(=O)c2sc3ccccc3c21`, the AC50 [1] was 7.94 µM [falling, partial curve].
For `O=c1c2sc3ccccc3c2n(Cc2ccccc2F)c(=O)n1-c1ccccc1Cl`, the AC50 [1] was 5.01 µM [rising, partial curve].
For `Cc1ccccc1NC(=O)c1c(C)oc2ccc(O)c(CN3CCCC(C)C3)c12` (configuration not stated), the AC50 [1] was 25.1 µM [falling, single point].
